Experimental data taken from the supplement of paper PMC7125110.
± gives the standard error. The uncertainty is large for many entries.

B1: glmS ribozyme (parent)
chain: AUAAAAGCGCCAGAACUACAGAAAUGUAGUUGACGAGGAGGAGGUUUAUCGAAUUUUCGGCGGAUGCCUCCAAA

Variants of: B1
Assay: self-cleavage kobs at 640 uM GlcN6P; higher = faster cleavage; RNA array
Conditions: with glucosamine-6-phosphate
Outline: (§1)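 kcat and KM were obtained from weighted Michaelis–Menten fits across concentrations of kobs values. Those came from one- or two-exponential decay fits to per-tile medians normalised to baseline and to non-cleaving reference variants. The variants were barcoded ribozymes transcribed in situ by E. coli RNA polymerase on sequenced MiSeq chips and tracked through a hybridised Cy3 probe at 37 °C, with 40 μM to 10 mM glucosamine-6-phosphate in HEPES/KCl/Mg(OAc)2 buffer flowed in.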

Row | Variant | self-cleavage kobs at 640 uM GlcN6P
1 | A6C U69C | 3.13e-05 ± 1.7e-05 s⁻¹
2 | A12G G62U C70G | 4.32e-05 ± 2.3e-05 s⁻¹
3 | C50G A64C | 2.41e-05 ± 2.4e-05 s⁻¹
4 | A14G C16G A64G U69G | 6.85e-05 ± 3.7e-05 s⁻¹
5 | A42G C58G | 3.11e-05 ± 1.8e-05 s⁻¹
6 | A39G A64G U69A | 4.41e-05 ± 2.8e-05 s⁻¹
7 | C10U A42U G43U U56G G62U C71U | 3.66e-05 ± 2.8e-05 s⁻¹
8 | A6C U55G | 1.1e-05 ± 9.6e-06 s⁻¹
9 | A14G U30A G62U U69G | 3.44e-05 ± 3.2e-05 s⁻¹
10 | U45A A52U C67A | 2.98e-05 ± 1.9e-05 s⁻¹
11 | A36G C50G | 2.47e-05 ± 2.1e-05 s⁻¹
12 | C34A A36G G38U U69G | 7.62e-05 ± 4.5e-05 s⁻¹
13 | C16A C58A | 2.19e-05 ± 2.1e-05 s⁻¹
14 | U57A C61G G62C A64G U65A G66U C67G U69C | 2.85e-05 ± 2.5e-05 s⁻¹
15 | G41A U46A G66A | 4.7e-05 ± 2.6e-05 s⁻¹
16 | U47G U57C | 3.07e-05 ± 2.7e-05 s⁻¹
17 | A14C A36G C68G | 6.72e-05 ± 5.1e-05 s⁻¹
18 | A52G A64C C70A | 2.9e-05 ± 1.9e-05 s⁻¹
19 | A15U G32A C71A | 4.9e-05 ± 2.8e-05 s⁻¹
20 | U31A A36U A42C | 3.43e-05 ± 2.8e-05 s⁻¹
21 | A14U C50G | 0.000584 ± 0.00032 s⁻¹
22 | A12U G13U A53G C71G | 3.2e-05 ± 2.4e-05 s⁻¹
23 | G13A G29A | 2.8e-05 ± 1.8e-05 s⁻¹
24 | G44C U46A | 4.12e-05 ± 2.9e-05 s⁻¹
25 | A12G C61U C67U C68G | 2.67e-05 ± 2.7e-05 s⁻¹
26 | U47A C68A | 2.77e-05 ± 1.7e-05 s⁻¹
27 | G32C A39G | 2.33e-05 ± 1.8e-05 s⁻¹

No new results follow: an excerpt of the list.
Row | Variant | self-cleavage kobs at 640 uM GlcN6P
10 | U45A A52U C67A | 2.98e-05 ± 1.9e-05 s⁻¹
11 | A36G C50G | 2.47e-05 ± 2.1e-05 s⁻¹
12 | C34A A36G G38U U69G | 7.62e-05 ± 4.5e-05 s⁻¹
13 | C16A C58A | 2.19e-05 ± 2.1e-05 s⁻¹
14 | U57A C61G G62C A64G U65A G66U C67G U69C | 2.85e-05 ± 2.5e-05 s⁻¹
15 | G41A U46A G66A | 4.7e-05 ± 2.6e-05 s⁻¹
16 | U47G U57C | 3.07e-05 ± 2.7e-05 s⁻¹
17 | A14C A36G C68G | 6.72e-05 ± 5.1e-05 s⁻¹
18 | A52G A64C C70A | 2.9e-05 ± 1.9e-05 s⁻¹
19 | A15U G32A C71A | 4.9e-05 ± 2.8e-05 s⁻¹
20 | U31A A36U A42C | 3.43e-05 ± 2.8e-05 s⁻¹
21 | A14U C50G | 0.000584 ± 0.00032 s⁻¹
22 | A12U G13U A53G C71G | 3.2e-05 ± 2.4e-05 s⁻¹

Variants of: B1
Assay: self-cleavage kobs at 10000 uM GlcN6P; higher = faster cleavage; RNA array
Conditions: with glucosamine-6-phosphate
Outline: as §1

Row | Variant | self-cleavage kobs at 10000 uM GlcN6P
28 | A6C U69C | 2.23e-05 ± 1.3e-05 s⁻¹
29 | G32A C67G C70U | 2.81e-05 ± 1.9e-05 s⁻¹
30 | G29U C50G A53G U55G C67G | 4.98e-05 ± 2.8e-05 s⁻¹
31 | C10A C34U G59U U69A | 3.03e-05 ± 2.1e-05 s⁻¹
32 | G37C U45G | 1.78e-05 ± 1.3e-05 s⁻¹
33 | C10G C11U C67G | 2.2e-05 ± 1.8e-05 s⁻¹
34 | C67G C68G | 0.000523 ± 0.00036 s⁻¹
35 | G37A A48G | 2.06e-05 ± 1.5e-05 s⁻¹
36 | C11G U30C C58U C70A | 2.13e-05 ± 1.7e-05 s⁻¹
37 | A36G C50G | 0.000601 ± 0.00059 s⁻¹
38 | C10A C67U C68U | 1.9e-05 ± 1.9e-05 s⁻¹
39 | A12U A36G | 1.18e-05 ± 1e-05 s⁻¹
40 | C10A U69C | 1.68e-05 ± 1.5e-05 s⁻¹
41 | A14U A52G C71G | 2.01e-05 ± 1.4e-05 s⁻¹
42 | U45A U54C C68G | 3.72e-05 ± 2.2e-05 s⁻¹
43 | G32U G41C | 1.56e-05 ± 1.5e-05 s⁻¹
44 | U31A A33U | 1.82e-05 ± 9.9e-06 s⁻¹
45 | G29A A42U | 2.28e-05 ± 1.7e-05 s⁻¹

Variants of: B1
Assay: self-cleavage kobs at 40 uM GlcN6P; higher = faster cleavage; RNA array
Conditions: with glucosamine-6-phosphate
Outline: as §1

Row | Variant | self-cleavage kobs at 40 uM GlcN6P
46 | C50G G60C U69A | 3.88e-05 ± 2.4e-05 s⁻¹
47 | C50G A64C | 0.000487 ± 0.00046 s⁻¹
48 | C67G C68G | 1.71e-05 ± 8.6e-06 s⁻¹
49 | U47A U54A U65C | 2.09e-05 ± 2e-05 s⁻¹

Variants of: B1
Assay: self-cleavage kobs at 160 uM GlcN6P; higher = faster cleavage; RNA array
Conditions: with glucosamine-6-phosphate
Outline: as §1

Row | Variant | self-cleavage kobs at 160 uM GlcN6P
50 | G63A C70A | 2.08e-05 ± 1.7e-05 s⁻¹
51 | U45A A52U | 2.39e-05 ± 2.2e-05 s⁻¹
52 | G13U G29U | 2.1e-05 ± 1.1e-05 s⁻¹
53 | A12U C16A | 0.000322 ± 0.00017 s⁻¹
54 | G32A C68G | 2.1e-05 ± 1.6e-05 s⁻¹
55 | G32A C68U | 1.77e-05 ± 1.3e-05 s⁻¹
56 | A36G C50G | 2.17e-05 ± 1.9e-05 s⁻¹
57 | U57A C61G G62C A64G U65A G66U C67G U69C | 3.76e-05 ± 1.9e-05 s⁻¹
58 | U30G C70A | 1.88e-05 ± 1.1e-05 s⁻¹
59 | U47A U54A U65C | 3.51e-05 ± 2.7e-05 s⁻¹
60 | G32U U54C | 1.78e-05 ± 9.1e-06 s⁻¹
61 | G32U U54A | 2.96e-05 ± 1.5e-05 s⁻¹
62 | U56C C70U | 1.58e-05 ± 1e-05 s⁻¹

Variants of: B1
Assay: self-cleavage kobs at 2500 uM GlcN6P; higher = faster cleavage; RNA array
Conditions: with glucosamine-6-phosphate
Outline: as §1

Row | Variant | self-cleavage kobs at 2500 uM GlcN6P
63 | G63A C70A | 2.11e-05 ± 1.6e-05 s⁻¹
64 | G32A C67G C70U | 2.78e-05 ± 2.5e-05 s⁻¹
65 | U30A A36C C71G | 3.3e-05 ± 2.7e-05 s⁻¹
66 | G43A U54C | 3.63e-05 ± 2.2e-05 s⁻¹
67 | G35C C50G G60U | 2.96e-05 ± 2e-05 s⁻¹
68 | A6U A15C C67U | 3.22e-05 ± 2.7e-05 s⁻¹
69 | U45A A52U | 0.000237 ± 0.00014 s⁻¹
70 | A15C C16G G66C | 3e-05 ± 2.3e-05 s⁻¹
71 | A14U U57G | 2.47e-05 ± 2e-05 s⁻¹
72 | U46C G59A | 2.8e-05 ± 1.8e-05 s⁻¹
73 | A53U C58U C68G C70A C71A | 5.66e-05 ± 3.7e-05 s⁻¹
74 | G13A U46C | 4.56e-05 ± 2.6e-05 s⁻¹
75 | A36G C50G | 2.89e-05 ± 2e-05 s⁻¹
76 | C10A C68A | 2.52e-05 ± 1.4e-05 s⁻¹
77 | C10A C61G A64G C68G | 4.89e-05 ± 3.2e-05 s⁻¹
78 | C8A C11U A14G C50G | 6.13e-05 ± 3.2e-05 s⁻¹
79 | A6G U46C U47A | 2.79e-05 ± 2.4e-05 s⁻¹
80 | A14C A36G C68G | 4.91e-05 ± 2.8e-05 s⁻¹
81 | C16A U46A U55A | 1.98e-05 ± 1.6e-05 s⁻¹
82 | A15U G32A C71A | 0.000174 ± 8.9e-05 s⁻¹
83 | A36U U49A | 2.93e-05 ± 1.7e-05 s⁻¹
84 | U45A U54C C68G | 2.77e-05 ± 1.9e-05 s⁻¹
85 | U54A G59A C71A | 2.47e-05 ± 2.3e-05 s⁻¹
86 | C16U U56G C68G | 2.78e-05 ± 2e-05 s⁻¹
87 | U31A A33U | 2.37e-05 ± 1.5e-05 s⁻¹
88 | U65C C70G | 1.95e-05 ± 1.6e-05 s⁻¹
89 | A15C C58U C61A | 4.64e-05 ± 2.5e-05 s⁻¹
90 | A6U C8G A33U C34G U69G | 5.96e-05 ± 4e-05 s⁻¹
91 | C50U C68A C71U | 3.14e-05 ± 2.1e-05 s⁻¹

Copied from the list.
Value of A15U G32A C71A under self-cleavage kobs at 2500 uM GlcN6P: 0.000174 ± 8.9e-05 s⁻¹
Value of A15C C58U C61A under self-cleavage kobs at 2500 uM GlcN6P: 4.64e-05 ± 2.5e-05 s⁻¹
